# Results published in the supplement of paper PMC3334620.
# Over roughly 33,000 sequences, “E-score (-0.5 to 0.5)” has its median near -0.0059; the highest 2% begin near 0.26. Some of the results follow.
# Biological target: T1, Cin5 (UniProt P40917)
# T1 sequence: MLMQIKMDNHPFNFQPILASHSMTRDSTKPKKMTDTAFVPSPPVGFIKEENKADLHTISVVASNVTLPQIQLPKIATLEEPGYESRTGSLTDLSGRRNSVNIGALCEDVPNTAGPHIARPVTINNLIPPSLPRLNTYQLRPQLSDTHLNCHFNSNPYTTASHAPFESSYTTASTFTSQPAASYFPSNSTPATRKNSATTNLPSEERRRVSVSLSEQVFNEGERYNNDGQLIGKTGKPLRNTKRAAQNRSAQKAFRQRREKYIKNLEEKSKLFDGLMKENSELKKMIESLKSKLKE
# Test: PBM E-score (8-mer binding enrichment) (E-score (-0.5 to 0.5)); higher = stronger / more preferred TF binding
# Conditions: protein concentration: 100 nM; construct: GST-full length
# Procedure, shortened: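 Universal all-10-mer Agilent arrays, fresh or stripped once, were converted to double-stranded form by primer extension. GST-tagged yeast transcription factors from PURExpress in vitro transcription/translation, full-length or DNA-binding domain only, were applied at about 100-200 nM and detected with fluorescent anti-GST. After masliner normalisation, the Universal PBM Analysis Suite scored each ungapped eight-base word together with its reverse complement by E-score.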
row,Sequence,PBM E-score
1,ATCTTCAA,0.141
2,AAGGAATG,0.0694
3,CGTACAGA,-0.12
4,GACGAATA,0.174
5,AACGCGCG,0.276
6,CTCCGGAC,-0.0821
7,GACGGTCA,-0.245
8,GGTCTCGA,-0.0648
9,ACCGAGGC,-0.231
10,GGCAGCGA,-0.277
11,GGGATACA,0.0204
12,ATGGAAAT,0.151
13,CCCCTAGA,-0.0639
14,AGAAATCA,0.138
15,CCACACAC,0.0084
16,CGACGGAA,0.152
17,GCGAGGAC,-0.224
18,GTCACAAC,-0.0318
19,AGTTCATA,0.156
20,CTTGCTTC,-0.073
21,AAGCACCG,-0.0883
22,ATAGGGAT,0.13
23,CACTGGAC,0.0102
24,GCGCCTGA,0.117
25,ACAACAAA,0.102

row,Sequence,PBM E-score
1,CCTCGGCA,-0.159
2,CTCTGGAA,-0.0651
3,TCCCGGGA,0.242
4,ACTACTTA,0.1
5,CCGAGATA,0.109
6,CGAGCAAA,-0.0426
7,AAACCGCG,0.265
8,GGCCAGAA,0.0816
9,CGCTTCGA,-0.0283
10,CAGACGAA,0.286
11,GACAGATA,0.178
12,GTCATTAA,0.279
13,CAGCTACG,-0.288
14,CATGCTTC,0.0417
15,CGCGGTCC,-0.0882
16,AAATGAAC,0.072
17,CAACGGCA,-0.106
18,GGCAGTTA,-0.0543
19,GATCGCAA,0.158
20,GCCACGTA,-0.0483
21,GGGAAATA,0.0795
22,CTATCTGC,-0.0751
23,CCCGCAGC,-0.133
24,AACTATGA,0.173
25,GAACGTCC,-0.00592

row,Sequence,PBM E-score
1,TAGAAAAA,0.0442
2,ATGGTAAC,0.217
3,CCATCGAC,0.00486
4,AGGATAAC,0.0753
5,ATCGATAC,0.201
6,AGGCCATA,-0.0731
7,ACTTAGTG,-0.0686
8,AGTGATGG,-0.0654
9,CACCTGGG,-0.231
10,AGCCACGA,-0.0686
11,GTTGGTTA,0.108
12,AGTCTTAT,0.158
13,AGTTTACG,0.15
14,CTACGCAA,-0.135
15,CCTAGCAG,-0.165
16,AAACGCAA,0.13
17,GTGCTCGA,-0.0887
18,GTGTGGTA,-0.0681
19,CGCAATAC,0.0315
20,GAGCATCC,-0.0934
21,AGTGCAAC,0.0064
22,GTGGTGCA,-0.138
23,GCCGATCC,-0.171
24,GCCAAATA,0.152
25,CCATCTGC,0.111

row,Sequence,PBM E-score
1,AACCAGAC,-0.167
2,GAGATGAC,0.12
3,GGTCGATA,-0.035
4,CGACTCCA,-0.0999
5,CGGACATA,0.0987
6,ATACGGCC,-0.0279
7,CCCCATCG,-0.0199
8,TATTAGCA,0.177
9,CCGTAGGC,-0.136
10,GACAGCCC,-0.171
11,ACATGCAC,0.0682
12,CTGATTAC,0.378
13,GGATAGTA,0.224
14,GTCACCGA,-0.12
15,CTCGACAC,-0.139
16,CTATTGGA,0.137
17,CTAGGGAA,-0.0434
18,CTGTATTA,0.133
19,AGTCTCAT,-0.0895
20,CCCAGTTA,-0.143
21,CACATGTA,0.146
22,ACCGCCCG,-0.236
23,CGTTGGTA,-0.0695
24,ATAATATC,0.221
25,GACTTTGA,-0.00717

row,Sequence,PBM E-score
1,CCCAGTGA,-0.202
2,AAGTCGGG,-0.0202
3,CGCAACAC,0.0943
4,GCGCAACC,-0.0217
5,AATTATTA,0.242
6,CTCCCCAA,-0.00166
7,GTTCCCAA,-0.187
8,CCGATATA,0.0428
9,CTCCTCAA,-0.257
10,CGCTAGCC,-0.249
11,ACGTCTAA,0.0554
12,CCTTTTCG,-0.0528
13,AGTTGCCG,-0.0277
14,CCGTTCAG,-0.0278
15,CTTAGGCC,-0.228
16,ATCTAAAG,-0.0819
17,CACGGTAA,0.0326
18,GCGCATAC,-0.00979
19,CATTACGG,0.0504
20,GGTCTAGA,-0.202
21,AAGAGTGG,-0.115
22,GATCCCCC,-0.426
23,GGAACCAA,0.0941
24,ACACAGGC,0.0146
25,GAACGTTA,-0.104

row,Sequence,PBM E-score
1,GGATACTA,0.00323
2,TAACGCAA,0.142
3,CCGCGTAG,0.0587
4,GCTAAGCC,-0.0285
5,GTGCCATA,-0.101
6,GATGATGC,-0.0135
7,CCGTCCAG,-0.201
8,AGCCATGA,0.0314
9,AACATTTA,0.148
10,GGGAGCCC,-0.419
11,CTGTTGTA,0.0816
12,AAAGAACA,0.0152
13,TAACTTCA,0.0483
14,CAGATTAG,-0.00484
15,GACAACAA,0.152
16,GAGTGCAC,-0.19
17,AATTTTCC,0.289
18,AGTGAAGA,-0.0895
19,AGAGATAT,-0.0177
20,AGCGGAAG,0.032
21,CGGGAAAA,-0.0166
22,CCTATAAA,-0.172
23,GCCGGCGA,-0.061
24,ATTTTGCA,0.0628
25,GACCGGCC,-0.202

# No new results follow: entries from further up.
row,Sequence,PBM E-score
12,CTGATTAC,0.378
13,GGATAGTA,0.224
14,GTCACCGA,-0.12
15,CTCGACAC,-0.139
16,CTATTGGA,0.137
17,CTAGGGAA,-0.0434
18,CTGTATTA,0.133
19,AGTCTCAT,-0.0895
20,CCCAGTTA,-0.143
21,CACATGTA,0.146
22,ACCGCCCG,-0.236
23,CGTTGGTA,-0.0695
24,ATAATATC,0.221
25,GACTTTGA,-0.00717
1,CCCAGTGA,-0.202
2,AAGTCGGG,-0.0202
3,CGCAACAC,0.0943
4,GCGCAACC,-0.0217
5,AATTATTA,0.242
6,CTCCCCAA,-0.00166
7,GTTCCCAA,-0.187
8,CCGATATA,0.0428
9,CTCCTCAA,-0.257
10,CGCTAGCC,-0.249
11,ACGTCTAA,0.0554
12,CCTTTTCG,-0.0528
13,AGTTGCCG,-0.0277
14,CCGTTCAG,-0.0278
15,CTTAGGCC,-0.228
16,ATCTAAAG,-0.0819
17,CACGGTAA,0.0326
18,GCGCATAC,-0.00979
19,CATTACGG,0.0504
20,GGTCTAGA,-0.202
21,AAGAGTGG,-0.115
22,GATCCCCC,-0.426
23,GGAACCAA,0.0941
24,ACACAGGC,0.0146
25,GAACGTTA,-0.104
1,GGATACTA,0.00323
2,TAACGCAA,0.142
3,CCGCGTAG,0.0587
4,GCTAAGCC,-0.0285
5,GTGCCATA,-0.101
6,GATGATGC,-0.0135
7,CCGTCCAG,-0.201
8,AGCCATGA,0.0314
9,AACATTTA,0.148
10,GGGAGCCC,-0.419
11,CTGTTGTA,0.0816
12,AAAGAACA,0.0152
13,TAACTTCA,0.0483
14,CAGATTAG,-0.00484
15,GACAACAA,0.152
16,GAGTGCAC,-0.19
17,AATTTTCC,0.289
18,AGTGAAGA,-0.0895
19,AGAGATAT,-0.0177
20,AGCGGAAG,0.032
21,CGGGAAAA,-0.0166
22,CCTATAAA,-0.172

# More entries follow:

row,Sequence,PBM E-score
1,AGCCGTAT,-0.0916
2,CCAGTGCC,-0.216
3,ACGCAGCC,-0.0404
4,AAAAGCCG,-0.0441
5,AAATTAGT,0.293
6,AATCAAAA,0.215
7,CCGCGCAC,0.0174
8,ACGTAGTC,-0.157
9,CAATTAAC,0.134
10,CCCGCCGG,-0.0652
11,GAGGCAGA,-0.146
12,CCAGTACA,0.0538
13,ATCTTGAC,0.0245
14,AATTGGCA,0.00514
15,AGGGGTTC,-0.0221
16,GGTCCAGA,-0.11
17,CGTGAATC,-0.0259
18,GTTCCGCA,0.176
19,AGGTGGAC,-0.165
20,GAACGGTA,0.0193
21,AACGTACG,0.0497
22,ACGTGAAT,0.0449
23,ACTGCCTG,-0.0627
24,CGTCTACC,-0.0219
25,GCGGCTAC,-0.0398

row,Sequence,PBM E-score
1,ACGATGCG,-0.0926
2,AAGTAGAT,0.177
3,CGCTCACG,0.0438
4,ATAAAATA,0.242
5,CCGCCCCG,0.24
6,AAACGTCC,0.00601
7,GTGTTCGA,0.0696
8,CGTTTTCA,0.0715
9,ACTTCTTG,-0.0532
10,AATCTCAG,-0.0909
11,GCTTCACA,0.0129
12,AGTCGCAT,-0.00653
13,ATTATGAA,0.258
14,GCTCAAAC,0.0406
15,GCGAGCAC,-0.0363
16,GATTGGGA,-0.112
17,CTCATACC,0.154
18,GATGTCGC,-0.0423
19,CGCTAGTA,0.036
20,CTGGTGGC,-0.107
21,CAATGATA,0.182
22,ATTCTTCG,0.138
23,GTTTGGTA,0.296
24,CCTCACAG,0.0094
25,GAGGCCAC,-0.184

row,Sequence,PBM E-score
1,CGTGATAA,0.0731
2,AGTTCACC,0.049
3,AAAGCCTT,-0.124
4,CTGCATAA,0.0574
5,GTGGCCCA,-0.181
6,AGGTAATA,0.296
7,ATCCCTCG,-0.111
8,AGGCCACA,-0.135
9,TCCCCAAA,0.193
10,CTGATCGA,-0.179
11,AATACAGC,0.0259
12,CGATTGTC,-0.0858
13,CAAAAGCC,-0.0698
14,GAAGGTAC,-0.0752
15,AGGTCGTG,-0.0245
16,ACTTCATC,-0.0118
17,CCGCGGCG,0.0289
18,CCAGTGAA,-0.0669
19,GACGCCTA,-0.156
